From patent US11332470B2, “CXCR4 inhibitors and uses thereof” (X4 Pharmaceuticals, Inc., priority 2016, dated 2022)
Structures were worked out from names or drawings and are uncertain.

Amino acid sequences for entries named in this document (tags omitted).
UniProt P61073, whole entry: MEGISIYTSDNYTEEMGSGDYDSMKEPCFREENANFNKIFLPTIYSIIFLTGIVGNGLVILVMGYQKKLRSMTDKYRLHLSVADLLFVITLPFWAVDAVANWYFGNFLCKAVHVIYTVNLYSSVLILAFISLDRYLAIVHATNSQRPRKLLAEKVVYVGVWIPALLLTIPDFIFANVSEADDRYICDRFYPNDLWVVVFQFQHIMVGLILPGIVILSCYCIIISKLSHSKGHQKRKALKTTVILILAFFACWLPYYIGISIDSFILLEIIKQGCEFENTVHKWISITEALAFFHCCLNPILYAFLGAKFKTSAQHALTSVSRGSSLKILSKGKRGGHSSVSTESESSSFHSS

Columns and labels:
[1] = target: CXCR4 (Jurkat cells expressing CXCR4) (Homo sapiens, UniProt P61073); assay: Chemokine (CXCL12-AF647) binding inhibition assay; conditions: read-out: IC50 CXCL-12 binding Jurkat, CXCL12-AF647 25 ng/mL
CXCR4 (U87.CXCR4 cells) = CXCR4 (U87.CXCR4 cells) (Homo sapiens, UniProt P61073); assay: Intracellular CXCL-12-induced calcium mobilization assay (FLIPR); conditions: read-out: IC50 CXCL-12 Ca2+ flux U87.CXCR4+, CXCL-12 25-50 ng/mL

IC50 [1]: 0.01 to 100 nM
IC50 (CXCR4 (U87.CXCR4 cells)): 0.01 to 100 nM
SMILES: Cc1cccnc1C1CCCN1C(C)c1cn2c(N3CCN(C)CC3)cccc2n1 (centres unmarked)
